From the supplement of paper PMC10849652
The other results are listed elsewhere or left out.

Chains of the proteins cited; added tags and fusions are not shown. Lines headed by an entry give the natural chain unless they say otherwise; changes in a name come on top.
UniProt P49336: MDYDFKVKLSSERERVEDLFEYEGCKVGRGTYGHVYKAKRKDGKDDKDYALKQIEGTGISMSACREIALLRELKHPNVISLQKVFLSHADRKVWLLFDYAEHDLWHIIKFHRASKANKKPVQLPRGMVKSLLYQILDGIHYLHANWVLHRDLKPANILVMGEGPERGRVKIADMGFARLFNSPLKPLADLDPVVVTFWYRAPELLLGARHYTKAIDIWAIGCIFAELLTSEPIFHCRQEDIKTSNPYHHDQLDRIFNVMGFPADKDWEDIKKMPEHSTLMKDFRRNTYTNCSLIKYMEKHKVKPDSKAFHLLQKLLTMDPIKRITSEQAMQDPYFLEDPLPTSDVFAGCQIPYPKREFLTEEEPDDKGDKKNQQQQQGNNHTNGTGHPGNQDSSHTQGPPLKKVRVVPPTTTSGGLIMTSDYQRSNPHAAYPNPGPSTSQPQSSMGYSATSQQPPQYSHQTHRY
UniProt Q9HC77: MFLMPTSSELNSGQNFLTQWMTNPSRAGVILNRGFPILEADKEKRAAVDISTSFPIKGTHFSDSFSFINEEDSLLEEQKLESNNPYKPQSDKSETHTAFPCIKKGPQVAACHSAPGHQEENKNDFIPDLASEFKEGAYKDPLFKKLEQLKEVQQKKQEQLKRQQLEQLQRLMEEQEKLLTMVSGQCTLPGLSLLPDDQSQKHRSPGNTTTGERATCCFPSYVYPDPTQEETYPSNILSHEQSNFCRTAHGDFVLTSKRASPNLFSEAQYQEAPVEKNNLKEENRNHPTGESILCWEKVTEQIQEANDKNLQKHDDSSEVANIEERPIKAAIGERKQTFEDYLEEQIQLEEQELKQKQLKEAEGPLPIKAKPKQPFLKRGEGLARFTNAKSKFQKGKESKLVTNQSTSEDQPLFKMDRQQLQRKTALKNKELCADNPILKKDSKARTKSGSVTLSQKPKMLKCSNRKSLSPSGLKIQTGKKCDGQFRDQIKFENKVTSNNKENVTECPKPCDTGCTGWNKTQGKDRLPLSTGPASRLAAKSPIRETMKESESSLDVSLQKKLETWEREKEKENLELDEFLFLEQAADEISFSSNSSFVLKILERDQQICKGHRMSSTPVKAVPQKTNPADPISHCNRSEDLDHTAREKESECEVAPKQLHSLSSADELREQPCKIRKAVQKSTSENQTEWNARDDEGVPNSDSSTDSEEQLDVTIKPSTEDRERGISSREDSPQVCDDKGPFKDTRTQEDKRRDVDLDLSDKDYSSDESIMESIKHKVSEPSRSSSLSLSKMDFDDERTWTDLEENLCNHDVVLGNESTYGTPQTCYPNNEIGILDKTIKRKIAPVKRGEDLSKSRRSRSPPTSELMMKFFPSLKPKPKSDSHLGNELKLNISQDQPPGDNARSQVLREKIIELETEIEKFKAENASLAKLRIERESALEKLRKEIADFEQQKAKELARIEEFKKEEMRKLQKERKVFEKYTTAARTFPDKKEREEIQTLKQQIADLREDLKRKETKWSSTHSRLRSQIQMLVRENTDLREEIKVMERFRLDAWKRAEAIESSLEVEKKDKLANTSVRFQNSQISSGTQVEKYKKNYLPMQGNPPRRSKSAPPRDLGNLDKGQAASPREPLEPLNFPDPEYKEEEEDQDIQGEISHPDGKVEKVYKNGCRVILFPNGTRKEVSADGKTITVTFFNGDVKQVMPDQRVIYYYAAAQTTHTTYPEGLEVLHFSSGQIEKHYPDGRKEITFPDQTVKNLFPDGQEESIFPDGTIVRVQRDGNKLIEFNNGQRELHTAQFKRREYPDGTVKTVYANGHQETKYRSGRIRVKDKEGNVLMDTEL
UniProt Q9BXL8: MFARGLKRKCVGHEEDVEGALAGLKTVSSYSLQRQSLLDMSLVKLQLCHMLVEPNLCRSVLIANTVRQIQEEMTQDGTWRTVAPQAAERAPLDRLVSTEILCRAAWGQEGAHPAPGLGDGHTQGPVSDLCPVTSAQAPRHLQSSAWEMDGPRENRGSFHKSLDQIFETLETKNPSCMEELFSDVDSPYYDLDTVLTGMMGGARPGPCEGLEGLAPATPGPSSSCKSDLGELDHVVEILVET
UniProt P14209: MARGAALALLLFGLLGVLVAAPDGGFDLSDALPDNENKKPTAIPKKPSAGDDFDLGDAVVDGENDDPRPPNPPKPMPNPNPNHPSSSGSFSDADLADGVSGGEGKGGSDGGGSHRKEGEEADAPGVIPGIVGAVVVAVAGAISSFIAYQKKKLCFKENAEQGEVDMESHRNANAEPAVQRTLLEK
UniProt Q96G23: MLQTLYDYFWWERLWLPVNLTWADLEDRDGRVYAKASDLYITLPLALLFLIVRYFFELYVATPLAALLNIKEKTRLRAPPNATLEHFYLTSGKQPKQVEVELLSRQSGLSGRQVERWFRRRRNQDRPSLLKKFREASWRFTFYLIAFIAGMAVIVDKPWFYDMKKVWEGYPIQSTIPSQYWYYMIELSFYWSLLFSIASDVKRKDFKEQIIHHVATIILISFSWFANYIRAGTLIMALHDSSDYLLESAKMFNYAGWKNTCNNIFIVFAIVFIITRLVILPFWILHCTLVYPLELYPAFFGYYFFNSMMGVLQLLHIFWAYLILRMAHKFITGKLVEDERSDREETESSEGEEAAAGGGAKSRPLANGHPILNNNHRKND
UniProt Q9Y6K0: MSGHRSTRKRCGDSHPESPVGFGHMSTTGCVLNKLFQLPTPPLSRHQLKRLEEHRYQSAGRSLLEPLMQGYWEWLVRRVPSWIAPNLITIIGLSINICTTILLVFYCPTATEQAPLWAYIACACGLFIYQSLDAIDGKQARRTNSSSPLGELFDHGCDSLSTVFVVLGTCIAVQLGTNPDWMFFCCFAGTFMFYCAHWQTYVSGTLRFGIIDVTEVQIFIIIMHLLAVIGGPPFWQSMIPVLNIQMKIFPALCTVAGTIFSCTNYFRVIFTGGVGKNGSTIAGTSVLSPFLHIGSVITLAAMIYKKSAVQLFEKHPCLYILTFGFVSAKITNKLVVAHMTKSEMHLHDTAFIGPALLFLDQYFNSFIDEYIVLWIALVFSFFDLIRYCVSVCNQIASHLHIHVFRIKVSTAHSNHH
UniProt Q9C0F1: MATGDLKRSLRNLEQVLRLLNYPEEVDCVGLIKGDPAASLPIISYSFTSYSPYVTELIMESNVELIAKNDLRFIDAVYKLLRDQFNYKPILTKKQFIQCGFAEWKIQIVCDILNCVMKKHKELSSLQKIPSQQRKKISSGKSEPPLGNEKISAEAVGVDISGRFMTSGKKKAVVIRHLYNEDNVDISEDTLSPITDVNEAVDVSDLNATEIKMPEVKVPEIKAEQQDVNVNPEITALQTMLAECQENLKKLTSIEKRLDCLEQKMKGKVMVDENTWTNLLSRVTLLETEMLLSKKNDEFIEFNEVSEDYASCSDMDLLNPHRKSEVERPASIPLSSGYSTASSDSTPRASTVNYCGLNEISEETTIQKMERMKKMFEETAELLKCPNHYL
UniProt Q9UPN4: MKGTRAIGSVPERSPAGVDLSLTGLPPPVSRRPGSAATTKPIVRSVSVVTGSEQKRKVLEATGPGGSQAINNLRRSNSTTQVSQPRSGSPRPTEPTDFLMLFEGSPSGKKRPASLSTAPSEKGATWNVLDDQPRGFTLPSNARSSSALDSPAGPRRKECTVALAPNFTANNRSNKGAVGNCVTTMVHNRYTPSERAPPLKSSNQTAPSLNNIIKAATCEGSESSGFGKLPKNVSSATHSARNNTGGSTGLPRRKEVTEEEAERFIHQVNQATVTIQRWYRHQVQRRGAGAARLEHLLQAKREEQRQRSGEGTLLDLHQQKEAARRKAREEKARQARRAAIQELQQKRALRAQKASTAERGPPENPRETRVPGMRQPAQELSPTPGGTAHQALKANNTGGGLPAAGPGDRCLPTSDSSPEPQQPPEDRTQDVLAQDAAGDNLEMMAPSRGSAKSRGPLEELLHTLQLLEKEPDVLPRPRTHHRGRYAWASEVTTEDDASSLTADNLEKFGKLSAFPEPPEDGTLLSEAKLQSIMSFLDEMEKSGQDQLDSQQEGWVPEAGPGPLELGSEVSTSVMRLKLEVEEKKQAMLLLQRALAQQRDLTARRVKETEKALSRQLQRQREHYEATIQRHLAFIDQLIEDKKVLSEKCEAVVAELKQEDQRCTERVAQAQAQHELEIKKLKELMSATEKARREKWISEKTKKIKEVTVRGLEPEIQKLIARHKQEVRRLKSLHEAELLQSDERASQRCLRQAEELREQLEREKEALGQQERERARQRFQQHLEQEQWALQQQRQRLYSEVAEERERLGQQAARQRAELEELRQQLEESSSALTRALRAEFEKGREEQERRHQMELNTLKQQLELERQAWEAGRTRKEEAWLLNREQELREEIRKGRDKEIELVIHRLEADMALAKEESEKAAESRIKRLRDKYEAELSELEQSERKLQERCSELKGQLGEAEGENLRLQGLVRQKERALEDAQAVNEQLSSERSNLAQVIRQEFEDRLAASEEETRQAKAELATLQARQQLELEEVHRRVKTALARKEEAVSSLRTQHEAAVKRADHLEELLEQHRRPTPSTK
UniProt Q9H3Q1: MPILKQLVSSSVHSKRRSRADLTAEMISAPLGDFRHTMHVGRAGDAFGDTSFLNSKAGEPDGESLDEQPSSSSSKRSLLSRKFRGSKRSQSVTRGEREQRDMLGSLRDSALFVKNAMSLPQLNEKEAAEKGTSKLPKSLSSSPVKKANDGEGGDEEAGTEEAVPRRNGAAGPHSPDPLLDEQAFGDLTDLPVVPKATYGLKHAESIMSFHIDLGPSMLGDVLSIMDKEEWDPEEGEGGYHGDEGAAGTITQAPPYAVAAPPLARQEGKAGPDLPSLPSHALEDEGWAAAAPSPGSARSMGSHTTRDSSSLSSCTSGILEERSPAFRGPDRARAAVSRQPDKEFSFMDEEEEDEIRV
UniProt Q9Y232: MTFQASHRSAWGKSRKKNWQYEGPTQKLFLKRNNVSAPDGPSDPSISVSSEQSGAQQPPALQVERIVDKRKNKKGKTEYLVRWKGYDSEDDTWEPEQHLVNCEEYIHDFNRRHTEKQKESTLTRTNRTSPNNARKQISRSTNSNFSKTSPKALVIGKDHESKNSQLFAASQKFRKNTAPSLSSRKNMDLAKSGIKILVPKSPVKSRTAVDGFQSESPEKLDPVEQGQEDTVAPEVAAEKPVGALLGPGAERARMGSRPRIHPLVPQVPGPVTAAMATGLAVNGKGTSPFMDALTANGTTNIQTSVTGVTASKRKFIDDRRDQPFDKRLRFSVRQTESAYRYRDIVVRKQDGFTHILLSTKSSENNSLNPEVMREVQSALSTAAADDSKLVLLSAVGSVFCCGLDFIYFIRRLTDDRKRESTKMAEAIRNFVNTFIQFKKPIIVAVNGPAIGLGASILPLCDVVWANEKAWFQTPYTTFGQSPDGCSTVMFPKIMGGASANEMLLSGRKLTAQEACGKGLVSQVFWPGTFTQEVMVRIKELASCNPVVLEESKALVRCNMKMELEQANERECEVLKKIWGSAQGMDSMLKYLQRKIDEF

Assays:
Experiment in all cases: log2 fold change, soluble protein after heating vs DMSO (PISA); higher = thermal stabilisation; K562 lysate, 10 uM; active = over 0.2 and 3.5 SD of the protein, either way, in both replicates (recomputed)
[1] = compound: NCC(=O)Nc1ccc(-n2nc(C(F)(F)F)cc2-c2ccc3c(ccc4ccccc43)c2)cc1
Method in brief: (§1)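 Thermal stability, expressed as log-two fold change relative to solvent controls, is given from duplicates. Crude K562 extract in PBS pH 7.4 with 1 mM MgCl2, at 1 mg/mL protein, was treated with 10 μM compound for 30 min and heated in aliquots for 3 min across 48°C-58°C. After pooling, adjustment to 0.5% NP-40 at 4°C and centrifugation at 21,000xg for 90 min, supernatant protein was measured by TMTpro 16plex LC-MS/MS with channel sums equalised.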

vorinostat = compound: O=C(CCCCCCC(=O)Nc1ccccc1)NO [vorinostat]
Method in brief: as §1

silmitasertib = compound: O=C(O)c1ccc2c(c1)nc(Nc1cccc(Cl)c1)c1ccncc12 [silmitasertib]
Method in brief: as §1

[2] = compound: O=C1NC(=O)C(c2cnc3ccccn23)=C1c1cn2c3c(cc(F)cc13)CN(C(=O)N1CCCCC1)CC2
Method in brief: as §1

entospletinib = compound: c1cn2cc(-c3ccc4cn[nH]c4c3)nc(Nc3ccc(N4CCOCC4)cc3)c2n1 [entospletinib]
Method in brief: as §1

Measured: log2 fold change

CDK8 (UniProt P49336)
inactive: [1] -0.008 | vorinostat -0.057 | silmitasertib 0.226 | [2] -0.053

CENPJ (UniProt Q9HC77)
inactive: [1] -0.017 | vorinostat -0.161 | silmitasertib -0.01 | [2] -0.053 | entospletinib -0.009

CDCA4 (UniProt Q9BXL8)
inactive: [1] 0.039

CD99 (UniProt P14209)
inactive: [1] -0.052 | vorinostat 0.152 | silmitasertib -0.068 | [2] 0

CERS2 (UniProt Q96G23)
inactive: [1] 0.042 | vorinostat 0.062 | silmitasertib 0.006 | [2] -0.005 | entospletinib 0.029

CEPT1 (UniProt Q9Y6K0)
inactive: [1] -0.037 | vorinostat 0.103 | silmitasertib -0.016 | [2] 0.029 | entospletinib -0.016

Random excerpt: 2 records from the list
CD99 (UniProt P14209)
inactive: [1] -0.052 | vorinostat 0.152 | silmitasertib -0.068 | [2] 0

CERS2 (UniProt Q96G23)
inactive: [1] 0.042 | vorinostat 0.062 | silmitasertib 0.006 | [2] -0.005 | entospletinib 0.029

The list goes on:

CEP44 (UniProt Q9C0F1)
inactive: [1] -0.043 | vorinostat 0.001 | silmitasertib 0.003 | [2] 0.003 | entospletinib -0.024

CEP131 (UniProt Q9UPN4)
inactive: [1] 0.007 | vorinostat 0.1 | silmitasertib 0.016 | [2] 0.037 | entospletinib 0.065

CDC42EP4 (UniProt Q9H3Q1)
inactive: [1] 0 | vorinostat 0.018 | silmitasertib -0.074 | [2] 0.021 | entospletinib 0.051

CDYL (UniProt Q9Y232)
inactive: [1] 0.019 | vorinostat 0.022 | silmitasertib 0.012 | [2] 0.018 | entospletinib 0.022
